The target in one data set is Bcrp (Rattus norvegicus, UniProt Q80W57).
The conditions of data set [1]: FUR alone 5 mg/kg PO; fed and fasted data pooled.
[2] abbreviates: fasted state, FUR 5 mg/kg PO, NOV 20 mg/kg PO, vs FUR alone.
Where [3] appears, read: fed state, FUR 5 mg/kg PO, NOV 20 mg/kg PO, vs FUR alone.
[4] abbreviates: female rats, FUR 5 mg/kg PO, NOV 20 mg/kg PO, vs FUR alone.
[5] abbreviates: irrespective of food and sex, n = 5.
Setting [6] is: male rats, FUR 5 mg/kg PO, NOV 20 mg/kg PO, vs FUR alone.

Amino acid sequences for entries named in this document (tags omitted). A change or cut given only in a name is not applied to a line headed by its entry.
UniProt Q80W57: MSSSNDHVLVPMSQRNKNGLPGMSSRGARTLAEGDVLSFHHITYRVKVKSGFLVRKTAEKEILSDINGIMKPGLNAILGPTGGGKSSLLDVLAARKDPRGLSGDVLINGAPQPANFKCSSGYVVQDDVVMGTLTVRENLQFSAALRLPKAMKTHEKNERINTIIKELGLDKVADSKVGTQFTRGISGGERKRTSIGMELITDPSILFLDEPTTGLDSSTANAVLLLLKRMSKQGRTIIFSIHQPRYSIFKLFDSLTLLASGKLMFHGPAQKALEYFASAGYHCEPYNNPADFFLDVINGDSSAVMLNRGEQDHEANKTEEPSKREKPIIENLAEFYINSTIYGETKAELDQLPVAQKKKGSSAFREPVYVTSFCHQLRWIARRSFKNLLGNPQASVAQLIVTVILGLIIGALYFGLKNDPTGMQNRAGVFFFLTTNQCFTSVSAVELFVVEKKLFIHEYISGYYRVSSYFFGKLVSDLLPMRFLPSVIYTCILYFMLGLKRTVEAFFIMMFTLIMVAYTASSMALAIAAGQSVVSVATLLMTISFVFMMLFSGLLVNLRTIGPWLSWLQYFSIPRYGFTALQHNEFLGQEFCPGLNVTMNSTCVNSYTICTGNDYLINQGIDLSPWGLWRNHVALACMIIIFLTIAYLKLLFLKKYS

Where two headings read alike, the source gives them in different places. Some results are limits rather than exact numbers.

Consider `NS(=O)(=O)c1cc(C(=O)O)c(NCc2ccco2)cc1Cl` [FUR, Furosemide], for which, at Bcrp (FUR 5 mg/kg PO, NOV 20 mg/kg PO, CLR = Ae0-6 h/AUC0-6 h), the “Effect of NOV co-administration on CLR of FUR” value is on record as “no effect”. The “Increase of FUR AUC with NOV coadministration” value is reported as 3 fold at Bcrp (setting [2]); 2 fold at Bcrp (setting [3]); 2 fold on Bcrp (setting [4]); > 2 fold on Bcrp (setting [5]); 3- to 4 fold on Bcrp (setting [6]). The “Increase of FUR Cmax with NOV coadministration” value on Bcrp (setting [2]) is 3 fold; at Bcrp (setting [3]) it was 2 fold; at Bcrp (setting [4]) it was 2 fold; at Bcrp (setting [5]), > 2 fold; at Bcrp (setting [6]), 3- to 4 fold. Besides, on Bcrp (male vs female rats, FUR 5 mg/kg PO, NOV 20 mg/kg PO), the “Sex-effect on AUC, Cmax, or CLR of FUR when co-administered with NOV” value was “No sex-effect”. Besides, the “FUR AUC, female compared to male rats” value in data set [1] is reported as ~ 2 fold. Further, the “FUR Cmax, female compared to male rats” value in data set [1] is listed as ~ 2 fold.

Source of the values: article PMC9968170 (Pharmaceutics, 2023).
